# According to the supplement of paper PMC11150407:
# Counter-ions that a name gives are not always drawn. The campaign covered roughly 2,100 compounds. About 180 (8.6%) showed an effect of 50% or more. The list shows a part of the results.
# Test system: MOLM1 and UCSD/AML1 (averaged)
# Assay: cell viability relative to DMSO control (POC); higher = less growth inhibition
# Conditions: 1 µM; 72 h
# Experimental: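 Primary viability screen in the 3q26 EVI1-high AML cell lines MOLM1 and UCSD/AML1 (1.5e3 cells/well, 384-well), compounds at 1 uM for 72 h. ATP CellTiter-Glo read-out given as percent of viable cells over DMSO control (POC), averaged over duplicates. DMSO was the negative control and 5 uM etoposide the positive control. This mapping covers the MicroSource Spectrum and Selleck anticancer libraries (drug names).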
row,SMILES,cell viability
1,N[C@@H](Cc1cc(I)c(Oc2cc(I)c(O)c(I)c2)c(I)c1)C(=O)O,88.4%
2,Cc1cc(=O)oc2cc(O)c(O)cc12,98.5%
3,Nc1cccc2c1C(=O)N(C1CCC(=O)NC1=O)C2=O (centres undefined) [Pomalidomide],104%
4,O=C(O)CCCCCCCCCCCC[C@@H]1C=CCC1,93.9%
5,CN(C)CCN(Cc1ccccc1)c1ccccn1,90%
6,C=CC1=C(C)c2cc3[nH]c(cc4nc(cc5[nH]c(cc1n2)c(C)c5CCC(=O)O)C(CCC(=O)O)=C4C)c(C)c3C=C,106%
7,Nc1ccn([C@@H]2O[C@H](CO)[C@@H](O)C2(F)F)c(=O)n1 [Gemcitabine (Gemzar)],8.79%
8,Nc1ccn([C@@H]2O[C@H](CO)[C@@H](O)C2(F)F)c(=O)n1 [Gemcitabine HCl (Gemzar)],10.8%
9,CC(=O)O[C@@]12CO[C@@H]1C[C@H](O)[C@@]1(C)C(=O)[C@H](O)C3=C(C)[C@@H](OC(=O)[C@H](O)[C@@H](NC(=O)OC(C)(C)C)c4ccccc4)C[C@@](O)([C@@H](OC(=O)c4ccccc4)[C@H]21)C3(C)C [Docetaxel (Taxotere)],14.7%
10,Clc1ccc(CSC(Cn2ccnc2)c2ccc(Cl)cc2Cl)cc1 (centres undefined),104%
11,C[n+]1cc2c3c(ccc2c2ccc4cc5c(cc4c21)OCO5)OCO3,80%
12,CCN(CC)C(=O)c1cccc(C)c1,114%
13,CCCN(CCC)S(=O)(=O)c1ccc(C(=O)O)cc1,97.4%
14,COc1ccc(-c2coc3c(O)c(OC)ccc3c2=O)cc1,94.6%
15,CN(C)CCOC(c1ccccc1)c1ccccc1,109%
16,CC(=O)[C@H]1CC[C@H]2[C@@H]3CCC4=CC(=O)CC[C@]4(C)[C@H]3CC[C@]12C,97.5%
17,CN(C)CC/C=C1/c2ccccc2Sc2ccc(Cl)cc21,95.6%
18,CC(=O)O[C@H]1C[C@@H](OC(C)=O)C(C)(C)[C@@H]2C[C@@H](OC(C)=O)[C@]3(C)[C@H](CC[C@@]4(C)[C@H](c5ccoc5)OC(=O)[C@H]5O[C@@]534)[C@@]12C,83.3%
19,CC(=O)Oc1ccccc1C(=O)O,101%
20,N=C(N)NS(=O)(=O)c1ccc(N)cc1,101%
21,CC1=C(/C=C/C(C)=C/C=C/C(C)=C/C(=O)O)C(C)(C)CCC1,94.7%
22,CC1=C(/C=C/C(C)=C/C=C/C(C)=C/C(=O)O)C(C)(C)CCC1 [All-trans Retinoic Acid (Tretinoin)],75.1%
23,CC(=O)O[C@@H]1CC2C(C)(C)[C@H](O)C=C[C@]2(C)C2CC[C@@]3(C)[C@H](c4ccoc4)OC(=O)C4OC43[C@@]21C (some centres undefined),98.8%

row,SMILES,cell viability
1,COc1cc(C(=O)NCCCCCC(=O)O)cc(OC)c1OC,102%
2,CC1=C(C(=O)O)N2C(=O)[C@@H](NC(=O)[C@H](N)C3=CCC=CC3)[C@H]2SC1,105%
3,N[C@@H](CCC(=O)N[C@@H](CS)C(=O)NCC(=O)O)C(=O)O,95.1%
4,COc1cc2c3cc1Oc1cc(ccc1O)C[C@@H]1c4c(cc(OC)c(O)c4Oc4ccc(cc4)C[C@@H]3N(C)CC2)CC[N+]1(C)C,100%
5,Cc1ncc(CO)c(CO)c1O,99.4%
6,COc1ccc2cc([C@H](C)CO)ccc2c1,103%
7,C#C[C@]1(OC(C)=O)CC[C@H]2[C@@H]3CCC4=CC(=NO)CC[C@@H]4[C@H]3CC[C@@]21CC (mixture of isomers),91.3%
8,Clc1ccc(CO/N=C(\Cn2ccnc2)c2ccc(Cl)cc2Cl)c(Cl)c1,100%
9,CC(=O)O[C@]1(C(C)=O)CC[C@H]2[C@@H]3C=C(Cl)C4=CC(=O)[C@@H]5C[C@@H]5[C@]4(C)[C@H]3CC[C@@]21C,102%
10,CC(C)c1cc(-c2n[nH]c(=O)n2-c2ccc3c(ccn3C)c2)c(O)cc1O [Ganetespib (STA-9090)],2.49%
11,N[C@@H]1CONC1=O,95.6%
12,O=C(O)COCCN1CCN(C(c2ccccc2)c2ccc(Cl)cc2)CC1 (centres undefined),103%
13,CC(C)n1nc(-c2ccc3oc(N)nc3c2)c2c(N)ncnc21,21.6%
14,CCCCCCCCCCCCCCCC(=O)OC[C@@H](NC(=O)C(Cl)Cl)[C@H](O)c1ccc([N+](=O)[O-])cc1,96.2%
15,CCCCc1nc2cc(/C=C/C(=O)NO)ccc2n1CCN(CC)CC [SB939 (Pracinostat)],1.57%
16,O=C(O)/C=C/c1ccc(O)c(O)c1,90.5%
17,COc1cc2nc(N(C)CCCNC(=O)C3CCCO3)nc(N)c2cc1OC (centres undefined),86.8%
18,CC1(C)S[C@@H]2[C@H](NC(=O)[C@H](NC(=O)N3CCNC3=O)c3ccccc3)C(=O)N2[C@H]1C(=O)O,101%
19,COc1c(-c2coc3cc4c(cc3c2=O)CC(OC(C)=O)C(C)(C)O4)ccc2c1C=CC(C)(C)O2 (centres undefined),88.7%
20,CCCCCCCCCc1ccc(OCCOCCOCCOCCOCCOCCOCCOCCOCCO)cc1,37.9%
21,NC(=O)c1cc[n+](CC2=C(C(=O)O)N3C(=O)[C@@H](NC(=O)[C@@H](c4ccccc4)S(=O)(=O)[O-])[C@H]3SC2)cc1,116%
22,COC(=O)Nc1nc2cc(C(=O)c3ccccc3)ccc2[nH]1,16.8%
23,CCCCCCc1ccc(O)cc1O.Nc1c2ccccc2nc2ccccc12,46.4%

# A different layout for some results above:
row | SMILES | cell viability
2 | CC1=C(C(=O)O)N2C(=O)[C@@H](NC(=O)[C@H](N)C3=CCC=CC3)[C@H]2SC1 | 105%
3 | N[C@@H](CCC(=O)N[C@@H](CS)C(=O)NCC(=O)O)C(=O)O | 95.1%
4 | COc1cc2c3cc1Oc1cc(ccc1O)C[C@@H]1c4c(cc(OC)c(O)c4Oc4ccc(cc4)C[C@@H]3N(C)CC2)CC[N+]1(C)C | 100%
5 | Cc1ncc(CO)c(CO)c1O | 99.4%
6 | COc1ccc2cc([C@H](C)CO)ccc2c1 | 103%
7 | C#C[C@]1(OC(C)=O)CC[C@H]2[C@@H]3CCC4=CC(=NO)CC[C@@H]4[C@H]3CC[C@@]21CC (mixture of isomers) | 91.3%
8 | Clc1ccc(CO/N=C(\Cn2ccnc2)c2ccc(Cl)cc2Cl)c(Cl)c1 | 100%
9 | CC(=O)O[C@]1(C(C)=O)CC[C@H]2[C@@H]3C=C(Cl)C4=CC(=O)[C@@H]5C[C@@H]5[C@]4(C)[C@H]3CC[C@@]21C | 102%
10 | CC(C)c1cc(-c2n[nH]c(=O)n2-c2ccc3c(ccn3C)c2)c(O)cc1O [Ganetespib (STA-9090)] | 2.49%
11 | N[C@@H]1CONC1=O | 95.6%
12 | O=C(O)COCCN1CCN(C(c2ccccc2)c2ccc(Cl)cc2)CC1 (centres undefined) | 103%
13 | CC(C)n1nc(-c2ccc3oc(N)nc3c2)c2c(N)ncnc21 | 21.6%
14 | CCCCCCCCCCCCCCCC(=O)OC[C@@H](NC(=O)C(Cl)Cl)[C@H](O)c1ccc([N+](=O)[O-])cc1 | 96.2%
15 | CCCCc1nc2cc(/C=C/C(=O)NO)ccc2n1CCN(CC)CC [SB939 (Pracinostat)] | 1.57%
16 | O=C(O)/C=C/c1ccc(O)c(O)c1 | 90.5%
17 | COc1cc2nc(N(C)CCCNC(=O)C3CCCO3)nc(N)c2cc1OC (centres undefined) | 86.8%
18 | CC1(C)S[C@@H]2[C@H](NC(=O)[C@H](NC(=O)N3CCNC3=O)c3ccccc3)C(=O)N2[C@H]1C(=O)O | 101%
19 | COc1c(-c2coc3cc4c(cc3c2=O)CC(OC(C)=O)C(C)(C)O4)ccc2c1C=CC(C)(C)O2 (centres undefined) | 88.7%

# (next part)

row,SMILES,cell viability
1,Cc1onc(-c2c(Cl)cccc2Cl)c1C(=O)N[C@@H]1C(=O)N2[C@@H]1SC(C)(C)[C@@H]2C(=O)O,100%
2,COc1cc(OC)c(C(C)=O)c(O)c1C,111%
3,Cc1cc(O)c(C=O)c2c1C(=O)Oc1c(C)c(O)c3c(c1O2)C(O)OC3=O (centres undefined),97.7%
4,C[N+](C)(C)CCCCCC[N+](C)(C)C,114%
5,CN(C)/N=N/c1[nH]cnc1C(N)=O,103%
6,CN(C)/N=N/c1[nH]cnc1C(N)=O [Dacarbazine (DTIC-Dome)],86.2%
7,COc1ccc(C(Cl)=C(c2ccc(OC)cc2)c2ccc(OC)cc2)cc1,99.1%
8,O=C(O)c1cccc(O)c1O,107%
9,CC(CCc1ccccc1)NCC(O)c1ccc(O)c(C(N)=O)c1 (centres undefined),110%
10,CCOC(=O)[C@H](CCc1ccccc1)N[C@@H](C)C(=O)N1Cc2ccccc2C[C@H]1C(=O)O,91.6%
11,CN(C)CCCN1c2ccccc2Sc2ccccc21,97.3%
12,Cc1cc(C(C)(C)C)c(O)c(C)c1CC1=NCCN1,100%
13,COC(=O)[C@H](OC(C)=O)[C@H]1C(C)(C)[C@H](OC(C)=O)[C@@H]2CC3=C4CC(=O)O[C@@H](c5ccoc5)[C@]4(C)CC[C@@H]3[C@@]1(C)C2=O,94.8%
14,C=CC(C1=CC(=O)C=CC1=O)c1ccccc1 (centres undefined),103%
15,O=c1cc(N2CCOCC2)oc2c(-c3cccc4c3sc3ccccc34)cccc12,56.1%
16,CC(C)(C(=O)O)c1ccc(C(O)CCCN2CCC(C(O)(c3ccccc3)c3ccccc3)CC2)cc1 (centres undefined),88.4%
17,C[N+]1(C)[C@@H]2CC[C@H]1C[C@@H](OC(=O)C(O)c1ccccc1)C2 (some centres undefined),101%
18,COc1ccc2c(c1)OC1(O)COc3cc(OC)c(OC)cc3C1=C2 (centres undefined),102%
19,COc1ccc2c(=O)c(-c3cc4c(cc3OC)OCO4)coc2c1,99.7%
20,COc1ccc2c(c1)OC/C(=C\c1ccc(OC)c(O)c1)C2=O,18.3%
21,C[C@]1(OC(=O)/C=C/c2ccccc2)C[C@@H](O)[C@]2(O)C=CO[C@@H](O[C@@H]3O[C@H](CO)[C@@H](O)[C@H](O)[C@H]3O)[C@@H]21,95%
22,COC(=O)[C@H]1[C@H]2C[C@H]3c4[nH]c5ccccc5c4CCN3C[C@@H]2CC[C@@H]1O,98.8%
23,CNCCCC1c2ccccc2C=Cc2ccccc21,84.4%

row,SMILES,cell viability
1,CC1(C)C(=O)C=C[C@]2(C)[C@H]3CC[C@@]4(C)[C@H](c5ccoc5)OC(=O)[C@H]5O[C@]54[C@]3(C)C(=O)C[C@@H]12,84.7%
2,C[C@]12CCC(=O)C=C1CC[C@@H]1[C@@H]2[C@@H](O)C[C@@]2(C)[C@H]1CC[C@]2(O)C(=O)CO [Hydrocortisone (Cortisol)],81.3%
3,C[C@]12CCC(=O)C=C1CC[C@@H]1[C@@H]2[C@@H](O)C[C@@]2(C)[C@H]1CC[C@]2(O)C(=O)CO,81.8%
4,Oc1ncnc2[nH]ncc12,101%
5,CO/N=C(\C(=O)N[C@@H]1C(=O)N2C(C(=O)OCOC(=O)C(C)(C)C)=C(/C=C\c3scnc3C)CS[C@H]12)c1csc(N)n1,96.7%
6,CCC(=O)N1CCN(c2ccc(-n3c(=O)ccc4cnc5ccc(-c6cnc7ccccc7c6)cc5c43)cc2C(F)(F)F)CC1 [Torin 1],20.8%
7,CN(N=O)C(=O)N[C@H]1C(O)O[C@H](CO)[C@@H](O)[C@@H]1O (mixture of isomers),102%
8,CCCc1cc(=O)[nH]c(=S)[nH]1,95.7%
9,COc1ccc(CCN(C)CCCC(C#N)(c2ccc(OC)c(OC)c2)C(C)C)cc1OC (centres undefined),95.4%
10,CC1=C(CCC(=O)O)c2cc3[nH]c(cc4nc(cc5[nH]c(cc1n2)c(C)c5C(C)O)C(C)=C4C(C)O)c(C)c3CCC(=O)O (centres undefined),107%
11,Fc1ccc(C(c2ccc(F)cc2)N2CCN(C/C=C/c3ccccc3)CC2)cc1,103%
12,CN1CCc2c(c3ccccc3n2Cc2ccccc2)C1,96.6%
13,O=c1cc(-c2cccc3c2Sc2ccccc2S3)oc(N2CCOCC2)c1,69.4%
14,N#Cc1c(O)c2c(-c3ccc(-c4ccccc4O)cc3)csc2[nH]c1=O,97.3%
15,CCCCC(=O)O[C@H]1CC[C@H]2[C@@H]3CCc4cc(O)ccc4[C@H]3CC[C@]12C,103%
16,OCCOCCN1CCN(C2=Nc3ccccc3Sc3ccccc32)CC1,85%
17,Cc1cc(O)c(C)c(O)c1C(=O)O,97.3%
18,CC1(C)S[C@@H]2[C@H](NC(=O)[C@H](N)c3ccc(O)cc3)C(=O)N2[C@H]1C(=O)O,99.4%
19,COc1cccc2c1C(=O)c1c(O)c3c(c(O)c1C2=O)C[C@@](O)(C(=O)CO)C[C@@H]3O[C@H]1C[C@H](N)[C@H](O)[C@H](C)O1 [Doxorubicin (Adriamycin)],1.61%
20,COc1cccc2c1C(=O)c1c(O)c3c(c(O)c1C2=O)C[C@@](O)(C(=O)CO)C[C@@H]3O[C@H]1C[C@H](N)[C@H](O)[C@H](C)O1,1.67%
